{"source": "paper PMC4529235", "binders": {"B1": {"name": "G433C-C59V-ΔCCt (protein, UniProt P78348 1-527)", "chain": "MELKAEEEEVGGVQPVSIQAFASSSTLHGLAHIFSYERLSLKRALWALCFLGSLAVLLVVCTERVQYYFHYHHVTKLDEVAASQLTFPAVTLCNLNEFRFSQVSKNDLYHAGELLALLNNRYEIPDTQMADEKQLEILQDKANFRSFKPKPFNMREFYDRAGHDIRDMLLSCHFRGEVCSAEDFKVVFTRYGKCYTFNSGRDGRPRLKTMKGGTGNGLEIMLDIQQDEYLPVWGETDETSFEAGIKVQIHSQDEPPFIDQLGFGVAPGFQTFVACQEQRLIYLPPPWGTCKAVTMDSDLDFFDSYSITACRIDCETRYLVENCNCRMVHMPGDAPYCTPEQYKECADPALDFLVEKDQEYCVCEMPCNLTRYGKELSMVKIPSKASAKYLAKKFNKSEQYIGENILVLDIFFEVLNYETIEQKKAYEIAGLLCDIGGQMGLFIGASILTVLELFDYAYEVIKHKLARRGKAQKEAKRSSADKGVALSLDDVKRHNPAESLRGHPAGMTYAANILPHHPARGTFEDFT"}, "B2": {"name": "G433C-C59V-C61S-ΔCCt (protein, UniProt P78348 1-527)", "chain": "B1 chain with C61S"}}, "key": {"[1]": {"biological_target": "G433C-C59V-ΔCCt (human) (UniProt P78348)", "test": "cross-linking; 2 mM BMOE at the cell surface of intact Xenopus oocytes, cell-surface biotinylation, streptavidin beads, SDS-PAGE under reducing conditions, anti-His-tag western blot (ΔCCt background)"}, "[2]": {"biological_target": "G433C-C59V-C61S-ΔCCt (human) (UniProt P78348)", "test": "cross-linking; 2 mM BMOE at the cell surface of intact Xenopus oocytes, cell-surface biotinylation, streptavidin beads, SDS-PAGE under reducing conditions, anti-His-tag western blot (ΔCCt background)"}}, "note": "Where a chain is given by its changes, count along the chain named. In names and notes the source's numbering stands. Results are given in words; binding and its absence hold for the method and conditions named. Binding seen in cells or lysates may run through a third protein. Some results given as binding are weak or reduced against the parent protein; the word gives no strength.", "data": [{"binder": "B1", "values": [{"measurement": "binding", "setting": "[1]", "result": "binds"}]}, {"binder": "B2", "values": [{"measurement": "binding", "setting": "[2]", "result": "binds"}]}]}
